Reference: PubChem BioAssay AID1347431 (National Center for Advancing Translational Sciences (NCATS), 2020)
“And” between values parts separate entries of the source, which are not always exact repeats. Identical values can stand only once. Among all 1,200 compounds or so, fewer than 10 were called active. The call rests on the fitted dose curve; in most records, active means well fitted curve in the direction sought with a large enough effect; inconclusive means small, poorly fitted or top-dose-only effect, or another doubt; inactive means no such curve, though single readings can be large or run the other way. The list shows a part of the results.

Experiment: Confirmatory qHTS assay for inhibitors of Activation Induced Cytidine Deaminase (AID): UDG signals; further: 0% is about no effect
Conditions: UDG coupled enzyme activity counter-screen; at 115 µM (top of the series) unless noted
How it was run: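 UDG readout, a counterscreen: AID (1 uM, 4/3x) plus UDG (2 U/mL, 4/3x) preincubated 10 min with compound (7.32 nM - 114 uM final), then 4 h with DJC20/DJC23 substrates at room temperature; NaOH added, fluorescence read at 560/665 nm.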

| Compound | activity change, negative = inhibition |
| --- | --- |
| CCOc1ccccc1CNC(=O)c1cnc2sc(N3CCCCCC3)nn2c1=O | inactive: 1.93% |
| CCOc1ccc(C(=O)c2cn(Cc3ccccc3OC)c3ccc(F)cc3c2=O)cc1 | inactive: -3.56% |
| COc1ccc(C(=O)c2cn(Cc3ccc(F)cc3)c3ccc(C)cc3c2=O)cc1 | inactive: -1.36% |
| Cc1ccc(-c2nc3ccccn3c2Nc2ccc3c(c2)OCO3)cc1 | inactive: -8.74% |
| Cc1ccc2c(c1)-c1c(cnn1CC(=O)N1CCN(c3cccc(C(F)(F)F)c3)CC1)CO2 | inactive: -13.8% |
| CCCCNC(=O)c1cnn2c(C)c(Cc3c(C)cc(C)cc3C)c(C)nc12 | inactive: -15.9% |
| COC(=O)c1ccc(OCC2c3cc(OC)c(OC)cc3CCN2C(=O)c2cccc(C)c2)cc1 (stereo unspecified) | inactive: -1.29% |
| Cc1ccc(C)c(N2CCN(CCCNc3ncnc4onc(-c5ccc(Cl)cc5)c34)CC2)c1 | inactive: -3.48% |
| Cc1cccc(-n2ncc(C(=O)NCc3ccc4c(c3)OCO4)c2C2CCN(C(=O)OC(C)(C)C)CC2)c1 | inactive: -8% |
| Cc1oc(-c2cccc(Br)c2)nc1Cn1c(SCc2cccc(F)c2)nc2cccnc21 | inactive: -4.03% |
| COc1ccccc1NC(=O)c1cc2cc3ccc(OC)c(Cl)c3nc2s1 | inactive: 8.79% |
| CCC1CCCCN1CCCNC(=O)c1ccc2c(c1)N(Cc1cccc(Cl)c1)C(=O)c1ccccc1S2(=O)=O (stereo unspecified) | inactive: -18.1% |
| CN(Cc1ccccc1)C(=O)c1ccc(CSc2nc3cccnc3n2Cc2ccccc2)cc1 | inactive: -1.08% |
| COc1ccc(NC(=O)c2c(NC(=O)c3ccc(Br)cc3)sc3c2CCCC3)cc1 | inactive: -4.81% |
| COc1ccc(C)cc1N(C)C(=O)c1c2c(nc3ccccc13)C(=O)N(C1CCCCC1)C2 | inactive: -0.876% |
| CCCCN1C(C(=O)c2ccccc2)=C(OC(C)=O)c2ccccc2S1(=O)=O | inactive: 2.56% |
| Cc1c(NC(=O)C(C)(C)Oc2ccc(Cl)cc2)cccc1-c1nc2ncccc2o1 | inactive: -2.3% |
| Cc1ccccc1Cc1c(C)nc2nc(SCC(=O)NCCc3ccc(Cl)cc3)nn2c1C | inactive: -12.4% |
| COc1cc(NC(=O)CSc2nc3nc(C)c(Cc4ccc(C)cc4)c(C)n3n2)cc(OC)c1OC | inactive: -0.132% |
| O=C(Nc1ccc(F)cc1F)c1ccc2c(O)c(S(=O)(=O)c3ccc(Cl)cc3)c(=O)[nH]c2c1 | inactive: 6.68% |
| COc1ccc(CNCCC(c2ccccc2)c2ccc3c(c2)OCO3)cc1 (stereo unspecified) | inactive: -6.7% |
| Cc1ccc(N2C(=O)CSC23C(=O)N(CC(=O)Nc2ccc(C(C)C)cc2)c2ccccc23)cc1C (stereo unspecified) | inactive: -14.1% |
| CCOc1ccccc1C(=O)Oc1c(S(=O)(=O)c2ccc(C)cc2)c(C)nn1-c1ccccc1 | inactive: -1.9% |
| CCCCn1cc(S(=O)(=O)c2ccccc2)c(=O)c2cc(F)c(N3CCN(CCC)CC3)cc21 | inactive: 1.25% |
| COc1ccc(CCN2CCC(CNC(=O)c3cnn(-c4ccc(C)cc4)c3C3CCN(C(=O)OC(C)(C)C)CC3)CC2)cc1 | inactive: -7.6% |
| COc1ccc(C(CNC(=O)COc2cc(C)cc(C)c2)N2CCCCC2)cc1 (stereo unspecified) | inactive: 7.37% |

| Compound | activity change, negative = inhibition |
| --- | --- |
| CC(C)(C)c1ccc(-c2nc(SCCOc3ccc(Cl)cc3)n3[nH]c(=O)cc3n2)cc1 | inactive: -3.11% |
| CCOc1ccccc1NC(=O)CSc1ncc(S(=O)(=O)c2ccc(C(C)(C)C)cc2)c(=O)[nH]1 | inactive: -2.41% |
| Cc1ccc(C)c(CSc2cn(CCNC(=O)c3cccs3)c3ccccc23)c1 | inactive: -2.36% |
| CCCn1cc(S(=O)(=O)c2ccccc2)c(=O)c2cc(F)c(N3CCCCCC3)cc21 | inactive: -6.33% |
| CCOc1ccc(-n2c(C)nc3cc(C(=O)NCc4ccc(C)cc4)ccc32)cc1 | inactive: -6.68% |
| COc1ccccc1Nc1c2c(nc3ccc(NC(=O)c4ccc(OC)c(OC)c4)cc13)CCCC2 | inactive: -6.52% |
| Cc1ccc(C)c(-n2c(CCC(=O)O)ccc2-c2ccc(Cl)cc2)c1 | inactive: 2.67% |
| Cc1cc2oc(=O)c(CC(=O)O)c(C)c2c2occ(-c3ccc(F)cc3)c12 | inactive: -1.09% |
| CCCn1c(SCc2nc(-c3cc(OC)ccc3OC)no2)nnc1-c1ccc(Cl)cc1 | inactive: -18.2% |
| CCN(CC)CCOC(=O)c1ccc(NC(=O)Cn2ncc3c([nH]c4ccc(C)cc43)c2=O)cc1 | inactive: 2.86% |
| CCc1ccc(CN(Cc2ccco2)C(=O)c2ccc(OC)cc2)cc1 | inactive: -8.82% |
| O=S(=O)(NCCc1nnc2ccc(SCc3ccc(Cl)cc3Cl)nn12)c1ccccc1 | inactive: -1.19% |
| CCCn1c(SCc2nc(-c3ccc(OC)cc3OC)no2)nnc1-c1ccc(Cl)cc1 | inactive: -28.3% |
| CCc1ccc(Nc2nc(N)nc(CSc3nc4ccccc4s3)n2)cc1 | inactive: 2.53% |
| O=C(NCCC1=CCCCC1)c1ccc2c(c1)ncn2-c1ccc(F)c(F)c1 | inactive: -6.55% |
| Cc1ccc(N(Cc2cccs2)C(=O)c2ccc(Br)o2)cc1 | inactive: -6.43% |
| CSc1ccc2c(c1)C(N1CCN(C)CC1)Cc1ccccc1S2 (stereo unspecified) | inactive: 6.02% |
| Cc1ccc(C)c(Nc2nn3c(=O)c4ccc(C(=O)NCc5cccs5)cc4nc3s2)c1 | inactive: -7.32% |
| CCCN(CCC)CCCNC(=O)c1cn(CC)c2ccc(S(=O)(=O)N3CCc4ccccc4C3)cc2c1=O | inactive: -12.6% |
| O=C(Cc1ccccc1F)N1CCC(c2nc3c(nnn3Cc3cccc(Cl)c3)c(=O)[nH]2)CC1 | inactive: 6.48% |
| COc1ccc(-n2cc(-c3ccccc3)c3c(NCCc4ccc(OC)c(OC)c4)ncnc32)cc1 | inactive: 3.75% |
| CCCCCCCCc1ccc(-c2ccc(C(=O)O)cc2)cc1 | inactive: -2.26% and inactive: -1.29% |
| Cc1ccccc1OCC(=O)N(Cc1ccc(C(C)C)cc1)C1CCS(=O)(=O)C1 (stereo unspecified) | inactive: -3.95% |
| COc1cc2c(cc1OC)C(COc1ccc(C(C)C)cc1)N(C(=O)COc1ccccc1)CC2 (stereo unspecified) | inactive: -8.68% |
| Cc1cccc(N2CCN(C(=O)C3CCN(c4ncnc5c4nc4n5CCCCC4)CC3)CC2)c1C | inactive: -5.04% |
